Assay results reported in US8076321B2, “Compositions for treatment of systemic mastocytosis” (priority 2005, dated 2011).

System: Ton.Kit.wt cells (Ba/F3 with inducible wt KIT)
Assay: cells
Details: Mus musculus, BaF3, 48 h, read-out: IC50, SCF-dependent growth of doxycycline-exposed Ton.Kit.wt cells

IC50: 0.003 to 0.03 µM
SMILES: Cc1ccc(NC(=O)c2ccc(CN3CCN(C)CC3)cc2)cc1Nc1nccc(-c2cccnc2)n1 [imatinib, reference compound]
